The text below walks through data of article PMC11841255.

The chains behind the UniProt entries cited, without tags or fusion partners.
UniProt P01106: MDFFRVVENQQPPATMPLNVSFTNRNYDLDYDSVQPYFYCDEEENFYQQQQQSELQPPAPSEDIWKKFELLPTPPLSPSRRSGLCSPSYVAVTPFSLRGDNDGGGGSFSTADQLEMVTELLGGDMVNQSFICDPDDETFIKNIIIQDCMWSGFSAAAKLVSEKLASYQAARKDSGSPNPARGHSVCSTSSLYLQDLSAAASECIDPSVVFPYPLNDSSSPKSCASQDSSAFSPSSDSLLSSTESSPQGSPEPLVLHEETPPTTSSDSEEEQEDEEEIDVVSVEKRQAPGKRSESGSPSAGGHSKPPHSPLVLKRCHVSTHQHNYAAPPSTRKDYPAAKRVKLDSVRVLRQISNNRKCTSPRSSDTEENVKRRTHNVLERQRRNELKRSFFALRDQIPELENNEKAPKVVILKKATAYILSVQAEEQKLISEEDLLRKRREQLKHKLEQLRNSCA

These are yes or no findings as the source states them, for the method shown. Binding seen in cells or lysates may run through a third protein. Some results given as binding are weak or reduced against the parent protein; the word gives no strength. For some of these results: Tags and fused reporters may be left off the sequences shown.

For assay [1], the target named is MYC, endogenous (human (endogenous in UM-UC3 and T24)) (UniProt P01106). Put plainly: co-IP; endogenous proteins; lysate of UM-UC3 or T24 BLCA cells incubated with primary antibody at 4 °C for 12 h, Protein A/G magnetic beads 1 h at 4 °C, five washes, WB.
For another assay, the target named is Flag-MYC (UniProt P01106). Put plainly: co-IP; exogenous, tagged plasmids co-transfected in 293T cells; lysate incubated with primary antibody at 4 °C for 12 h, Protein A/G magnetic beads 1 h at 4 °C, five washes, WB; in one panel GFP-CDCA3 co-transfected with HA-MYC and Flag-TRIM28 (interaction enhanced).
Assay [2] addresses MYC, endogenous (human (endogenous in UM-UC3 and T24)), P01106. The assay can be described thus: co-IP; endogenous proteins; lysate of UM-UC3 or T24 BLCA cells incubated with primary antibody at 4 °C for 12 h, Protein A/G magnetic beads 1 h at 4 °C, five washes, WB. Conditions: remark: other sources report otherwise.
In another assay the target is HA-MYC, P01106. The assay can be described thus: co-IP; exogenous, tagged plasmids co-transfected in 293T cells; lysate incubated with primary antibody at 4 °C for 12 h, Protein A/G magnetic beads 1 h at 4 °C, five washes, WB; in one panel GFP-CDCA3 co-transfected with HA-MYC and Flag-TRIM28 (interaction enhanced). The note with it: remark: other sources report otherwise.

B1: Cell Division Cycle Associated-3 (CDCA3), endogenous (protein, UniProt Q99618 1-268)
chain: MGSAKSVPVTPARPPPHNKHLARVADPRSPSAGILRTPIQVESSPQPGLPAGEQLEGLKHAQDSDPRSPTLGIARTPMKTSSGDPPSPLVKQLSEVFETEDSKSNLPPEPVLPPEAPLSSELDLPLGTQLSVEEQMPPWNQTEFPSKQVFSKEEARQPTETPVASQSSDKPSRDPETPRSSGSMRNRWKPNSSKVLGRSPLTILQDDNSPGTLTLRQGKRPSPLSENVSELKEGAILGTGRLLKTGGRAWEQGQDHDKENQHFPLVES
As to B1, the binding result in assay [1] is given as “binds”.

B2: GFP-CDCA3 (protein, UniProt Q99618 1-268)
chain: B1 chain
In the case of B2, the binding entry with Flag-MYC is listed as “binds”.

B3: Tripartite Motif Containing 28 (TRIM28), endogenous, Q13263 1-835 (protein)
chain: MAASAAAASAAAASAASGSPGPGEGSAGGEKRSTAPSAAASASASAAASSPAGGGAEALELLEHCGVCRERLRPEREPRLLPCLHSACSACLGPAAPAAANSSGDGGAAGDGTVVDCPVCKQQCFSKDIVENYFMRDSGSKAATDAQDANQCCTSCEDNAPATSYCVECSEPLCETCVEAHQRVKYTKDHTVRSTGPAKSRDGERTVYCNVHKHEPLVLFCESCDTLTCRDCQLNAHKDHQYQFLEDAVRNQRKLLASLVKRLGDKHATLQKSTKEVRSSIRQVSDVQKRVQVDVKMAILQIMKELNKRGRVLVNDAQKVTEGQQERLERQHWTMTKIQKHQEHILRFASWALESDNNTALLLSKKLIYFQLHRALKMIVDPVEPHGEMKFQWDLNAWTKSAEAFGKIVAERPGTNSTGPAPMAPPRAPGPLSKQGSGSSQPMEVQEGYGFGSGDDPYSSAEPHVSGVKRSRSGEGEVSGLMRKVPRVSLERLDLDLTADSQPPVFKVFPGSTTEDYNLIVIERGAAAAATGQPGTAPAGTPGAPPLAGMAIVKEEETEAAIGAPPTATEGPETKPVLMALAEGPGAEGPRLASPSGSTSSGLEVVAPEGTSAPGGGPGTLDDSATICRVCQKPGDLVMCNQCEFCFHLDCHLPALQDVPGEEWSCSLCHVLPDLKEEDGSLSLDGADSTGVVAKLSPANQRKCERVLLALFCHEPCRPLHQLATDSTFSLDQPGGTLDLTLIRARLQEKLSPPYSSPQEFAQDVGRMFKQFNKLTEDKADVQSIIGLQRFFETRMNEAFGDTKFSAVLVEPPPMSLPGAGLSSQELSGGPGDGP
Consider B3, for which the binding result in assay [2] is reported as “binds”.

B4: Flag-TRIM28, Q13263 1-835 (protein)
chain: B3 chain
On to B4, for which, in the assay with HA-MYC, P01106, the binding entry is on record as “binds”.
